According to patent US20160200762A1, “Bioactive polypeptide DELQ and preparation method as well as application thereof” (SHANGHAI JIAOTONG UNIVERSITY, priority 2012, published 2016):
Values joined by “and” are separate entries in the source; they are usually repeats but may differ in a detail not shown here. Equal values may be shown once. At least one peptide structure holds a part that was inferred or is arguable (an end, a ring closure or a residue). Where a SMILES comes first, the peptide text is derived from it.

Columns and labels:
[1] = total antioxidant capacity detection with the FRAP (Ferric Reducing Ability Power) method; type: biochemical; conditions: sample concentration 4.00 mg/mL
Protocol: (1) Preparing FRAP Working Fluid:
According to the FRAP detection reagent kit, thorough mixing 7.5 mL TPTZ diluent, 750 μL TPTZ solution, and 750 μL detection buffer, incubating in a 37° C. water bath, and using in 2 h.
(2) Drawing a FeSO4 Standard Curve:
Adding 180 μL FRAP working fluid into the 96-hole cell culturing plate, then adding 5 μL FeSO4 standard curve solution according to Table 4, gently mixing, incubating at 37° C. for 3-5 min, and detecting absorbance values at 593 nm with the microplate reader.
FeSO4 concentration and the absorbance value have a good proportional relationship, i.e. the higher the FeSO4 concentration is, the higher absorbance value will be. According to the present invention, FeSO4 standard curve results are shown in FIG. 10, the standard curve has a good linear relationship, wherein a correlation coefficient thereof is 0.998. Precision and accuracy of the FeSO4 curve satisfy testing requirements, and are applicable for subsequent calculation.
(3) Bioactive Polypeptide DELQ Antioxidant Capacity Detection with FRAP Method
Adding 180 μL FRAP working fluid into the 96-hole cell culturing plate, adding 5 μL ddH2O into a blank control hole, adding 5 μL testing sample into a sample hole, adding 5 μL phytic acid into a positive control, gently mixing, incubating at 37° C. for 3-5 min, and detecting absorbance values at 593 nm with the microplate reader. […]

[2] = in vitro antioxidant activity detection with the [DPPH.] method (radical removing rate); type: biochemical; conditions: 90 min room temperature, 517 nm
Protocol: (1) Preparing 1 mmol/L [DPPH.] Methanol Solution:
Weighting […] [DPPH.] with the analytical balance and dissolving in 1 ml methanol solution for obtaining 1 mmol/L [DPPF.] methanol solution, storing with tinfoil for avoiding light, wherein the [DPPF.] methanol solution is prepared before use.
(2) Standard Curve Detection of [DPPH.] Methanol Solution:
Adding 100 μL [DPPH.] methanol standard curve sample into the 96-hole cell culturing plate according to a Table 2, waiting for 90 min at a room temperature, detecting absorbance values at 517 nm with the microplate reader.
Accordingly, curves are fitted and a regression equation is calculated with Excel, and results thereof are shown in FIG. 8 (the regression equation: y=−0.192x+0.2271, R^2=0.9991). […] From the results, absorbance values and [DPPF.] contents have an inverse relationship, i.e. the less the [DPPH.] content is, the […] the absorbance value will be, which means a stronger radical removing ability.
(3) Antioxidant Activity Detection of the Bioactive Polypeptide DELQ with [DPPH.] Method […]
2) blank group: adding 80 μL 1 mmol/L [DPPF.] methanol solution and 20 μL deionized water into the same 96-hole cell culturing plate for forming a blank group.
After adding the test sample, waiting at the room temperature for 90 min, detecting the absorbance values at 517 nm with the microplate reader, and calculating a radical removing ratio according to a following formula, wherein results thereof are shown in Table 3.

Q: With `CC(C)C[C@H](NC(=O)[C@H](CCC(=O)O)NC(=O)[C@@H](N)CC(=O)O)C(=O)N[C@@H](CCC(N)=O)C(=O)O` [DELQ, Asp-Glu-Leu-Gln] (H-DELQ-OH; N-terminus and C-terminus assumed) as the molecule, how does the FRAP [1] read?
A: 0.0208 mmol/g

Q: And the “corresponding FeSO4 concentration” value ([1]; 593 nm)?
A: 0.0835 ± 0.0351 mmol/L

Q: And the “[DPPH.] radical removing rate” value ([2]; sample concentration 0.625 mg/mL)?
A: 2.28 ± 0.12%

Q: And the “[DPPH.] radical removing rate” value ([2]; sample concentration 1.25 mg/mL)?
A: 16.64 ± 0.01%

Q: What about the “[DPPH.] radical removing rate” value ([2]; sample concentration 2.50 mg/mL) of the same molecule?
A: 19.04 ± 0.01%

Q: What about the “[DPPH.] radical removing rate” value ([2]; sample concentration 5.00 mg/mL) of the same molecule?
A: 22.76 ± 0.01%

Q: And the “[DPPH.] radical removing rate” value ([2]; sample concentration 10.00 mg/mL)?
A: 24.98% and 24.98 ± 0.05%
